Test results as given in patent US10376520B2, “Methods for the treatment of cardiovascular disorders” (Galapagos NV, priority 2015, dated 2019).
Further values from the same series stand in other lists.

Experiments:
Type in all cases: in vivo, human
RA patients [1] = assay: LDL determination, Study 2 (RA patients, monotherapy); settings: 50 mg q.d. non responders switching to 100 mg q.d. at week 12
Source text: (§1) Randomized, double-blind, placebo-controlled, multicenter, phase IIb dose finding study of Compound 1 (dosed as a [Compound 1:HCl:3H2O]) administered for 24 weeks as monotherapy to subjects with moderately to severely active rheumatoid arthritis who have an inadequate response to methotrexate alone
(§2) Double-blind, placebo-controlled, monotherapy study in subjects with moderately to severely active RA who have an inadequate response to methotrexate (MTX) (oral or parenteral).
(§3) 280 subjects randomized to one of 3 doses of Compound 1 (dosed as a [Compound 1:HCl:3H2O]) or to placebo, given once daily (q.d.).
(§4) Twelve weeks of treatment with Compound 1 (dosed as a [Compound 1:HCl:3H2O]) at 50 mg, 100 mg, or 200 mg q.d.; or placebo. At Week 12, all subjects on placebo and the subjects on the 50 mg dose who have not achieved 20% improvement in swollen joint count (SJC66) and tender joint count (TJC68) will be assigned to 100 mg q.d. in a blinded fashion and will continue treatment until Week 24. Subjects in the other groups will maintain their randomized treatment until Week 24.
The determination of [LDL]-cholesterol is made using an automated method taking advantage of the selective micellary solubilization of [LDL]-cholesterol by a nonionic detergent and the interaction of a sugar compound and lipoproteins (VLDL and chylomicrons).
When a detergent is included in the enzymatic method for cholesterol determination (cholesterol esterase, cholesterol oxidase coupling reaction), the relative reactivities of cholesterol in the lipoprotein fractions increase in this order: [HDL]<chylomicrons <VLDL <[LDL]. In the presence of Mg^2+, a sugar compound markedly reduces the enzymatic reaction of the cholesterol measurement in VLDL and chylomicrons. The combination of a sugar compound with detergent enables the selective determination of [LDL]-cholesterol in serum. (Friedewald et al., 1972; Rifai et al., 1992)
Homogeneous enzymatic colorimetric assay. […]
The color intensity of this dye is directly proportional to the cholesterol concentration and is measured photometrically. […]

RA patients [2] = assay: Total cholesterol determination, Study 2 (RA patients, monotherapy with Compound 1)
Source text: as §1, §2, §3, §4
This method is based on the determination of Δ^4 cholestenone after enzymatic cleavage of the cholesterol ester by cholesterol esterase, conversion of cholesterol by cholesterol oxidase, and subsequent measurement by the Trinder reaction of the hydrogen peroxide formed (Allain et al., 1974).
Cholesterol esters are cleaved by the action of cholesterol esterase to yield free cholesterol and fatty acids. Cholesterol oxidase then catalyzes the oxidation of cholesterol to cholest-4-en-3-one and hydrogen peroxide. In the presence of peroxidase, the hydrogen peroxide formed effects the oxidative coupling of phenol and 4-aminophenazone to form a red quinone-imine dye. The color intensity of the dye formed is directly proportional to the cholesterol concentration. It is determined by measuring the increase in absorbance.
Human serum and plasma samples cholesterol determination was done on a Roche/Hitachi Cobas c 701/702 system which automatically calculate the analyte concentration of each sample.

RA patients [3] = assay: Atherogenic index, Study 1 (RA patients, add-on to MTX)
Experimental: As used herein, the term ‘atherogenic index’ refers to
Double-blind, placebo-controlled add on study in subjects with moderately to severely active RA who have an inadequate response to methotrexate (MTX) (oral or parenteral).
Compound 1 (dosed as a [Compound 1:HCl:3H2O]) is dosed for twelve weeks once daily (q.d.) (50 mg, 100 mg or 200 mg) or twice daily (b.i.d.) (25 mg, 50 mg or 100 mg); or placebo.
At Week 12, the subjects on placebo who have not achieved 20% improvement in swollen joint count (SJC66) and tender joint count (TJC68) are re-randomized automatically to receive Compound 1 (dosed as a [Compound 1:HCl:3H2O]) either at 100 mg q.d. or 50 mg b.i.d. doses in a blinded fashion; subjects on 50 mg q.d. who have not achieved 20% improvement in SJC66 and TJC68 will be assigned to 100 mg q.d. and subjects on 25 mg b.i.d. that have not achieved a 20% improvement in SJC66 and TJC68 will be assigned to 50 mg b.i.d. Subjects who switch treatment at week 12 are handled as if they discontinued at week 12 for the purpose of statistical analysis, whereas subjects in the other groups will maintain their randomized treatment until Week 24.
The atherogenic index has been identified to be a good predictor of cardiovascular disorders risks and is calculated as follows: […]

In the case of `O=C(Nc1nc2cccc(-c3ccc(CN4CCS(=O)(=O)CC4)cc3)n2n1)C1CC1` [Compound 1, cyclopropanecarboxylic acid {5-[4-(1,1-dioxo-thiomorpholin-4-ylmethyl)-phenyl]-[1,2,4]triazolo[1,5-a]pyridin-2yl}-amide], the “[LDL] Mean percentage CFB - 24 weeks results” value (“[LDL] Mean percentage CFB” for short) (RA patients [1]; week 16) was 6.76%, the “[LDL] Mean percentage CFB” value (RA patients [1]; week 20) was 3.33% and the “[LDL] Mean percentage CFB” value (RA patients [1]; week 24) was 3.17%. The “[Total cholesterol] Mean CFB” value (RA patients [2]; Study 2 12 weeks results, 50 mg q.d., week 1) was 0.058 mmol/L, the “[Total cholesterol] Mean CFB” value (RA patients [2]; Study 2 12 weeks results, 50 mg q.d., week 2) was -0.021 mmol/L and the “[Total cholesterol] Mean CFB” value (RA patients [2]; Study 2 12 weeks results, 50 mg q.d., week 4) was 0.113 mmol/L. The “[Total cholesterol] Mean CFB” value (RA patients [2]; Study 2 12 weeks results, 50 mg q.d., week 8) was 0.252 mmol/L, the “[Total cholesterol] Mean CFB” value (RA patients [2]; Study 2 12 weeks results, 50 mg q.d., week 12) was 0.184 mmol/L and the “[Total cholesterol] Mean CFB” value (RA patients [2]; Study 2 12 weeks results, 100 mg q.d., week 1) was 0.191 mmol/L. The “[Total cholesterol] Mean CFB” value (RA patients [2]; Study 2 12 weeks results, 100 mg q.d., week 2) was 0.214 mmol/L, the “[Total cholesterol] Mean CFB” value (RA patients [2]; Study 2 12 weeks results, 100 mg q.d., week 4) was 0.369 mmol/L and the “[Total cholesterol] Mean CFB” value (RA patients [2]; Study 2 12 weeks results, 100 mg q.d., week 8) was 0.335 mmol/L. For the same compound, the “[Total cholesterol] Mean CFB” value (RA patients [2]; Study 2 12 weeks results, 100 mg q.d., week 12) was 0.517 mmol/L, the “[Total cholesterol] Mean CFB” value (RA patients [2]; Study 2 12 weeks results, 200 mg q.d., week 1) was 0.279 mmol/L and the “[Total cholesterol] Mean CFB” value (RA patients [2]; Study 2 12 weeks results, 200 mg q.d., week 2) was 0.375 mmol/L. For the same compound, the “[Total cholesterol] Mean CFB” value (RA patients [2]; Study 2 12 weeks results, 200 mg q.d., week 4) was 0.418 mmol/L, the “[Total cholesterol] Mean CFB” value (RA patients [2]; Study 2 12 weeks results, 200 mg q.d., week 8) was 0.460 mmol/L and the “[Total cholesterol] Mean CFB” value (RA patients [2]; Study 2 12 weeks results, 200 mg q.d., week 12) was 0.581 mmol/L. The “[Total cholesterol] Mean CFB” value (RA patients [2]; Study 2 24 weeks results, 50 mg q.d. non responders switching to 100 mg q.d. at week 12, week 1) was 0.264 mmol/L, the “[Total cholesterol] Mean CFB” value (RA patients [2]; Study 2 24 weeks results, 50 mg q.d. non responders switching to 100 mg q.d. at week 12, week 2) was 0.165 mmol/L and the “[Total cholesterol] Mean CFB” value (RA patients [2]; Study 2 24 weeks results, 50 mg q.d. non responders switching to 100 mg q.d. at week 12, week 4) was 0.359 mmol/L. The “[Total cholesterol] Mean CFB” value (RA patients [2]; Study 2 24 weeks results, 50 mg q.d. non responders switching to 100 mg q.d. at week 12, week 8) was 0.237 mmol/L, the “[Total cholesterol] Mean CFB” value (RA patients [2]; Study 2 24 weeks results, 50 mg q.d. non responders switching to 100 mg q.d. at week 12, week 12) was 0.253 mmol/L and the “[Total cholesterol] Mean CFB” value (RA patients [2]; Study 2 24 weeks results, 50 mg q.d. non responders switching to 100 mg q.d. at week 12, week 16) was 0.454 mmol/L. The “[Total cholesterol] Mean CFB” value (RA patients [2]; Study 2 24 weeks results, 50 mg q.d. non responders switching to 100 mg q.d. at week 12, week 20) was 0.395 mmol/L, the “[Total cholesterol] Mean CFB” value (RA patients [2]; Study 2 24 weeks results, 50 mg q.d. non responders switching to 100 mg q.d. at week 12, week 24) was 0.532 mmol/L and the “[Total cholesterol] Mean CFB” value (RA patients [2]; Study 2 24 weeks results, 50 mg q.d. responders, week 1) was 0.003 mmol/L. For the same compound, the “[Total cholesterol] Mean CFB” value (RA patients [2]; Study 2 24 weeks results, 50 mg q.d. responders, week 2) was -0.071 mmol/L, the “[Total cholesterol] Mean CFB” value (RA patients [2]; Study 2 24 weeks results, 50 mg q.d. responders, week 4) was 0.047 mmol/L and the “[Total cholesterol] Mean CFB” value (RA patients [2]; Study 2 24 weeks results, 50 mg q.d. responders, week 8) was 0.257 mmol/L. For the same compound, the “[Total cholesterol] Mean CFB” value (RA patients [2]; Study 2 24 weeks results, 50 mg q.d. responders, week 12) was 0.165 mmol/L, the “[Total cholesterol] Mean CFB” value (RA patients [2]; Study 2 24 weeks results, 50 mg q.d. responders, week 16) was 0.267 mmol/L and the “[Total cholesterol] Mean CFB” value (RA patients [2]; Study 2 24 weeks results, 50 mg q.d. responders, week 20) was 0.089 mmol/L. For the same compound, the “[Total cholesterol] Mean CFB” value (RA patients [2]; Study 2 24 weeks results, 50 mg q.d. responders, week 24) was 0.117 mmol/L, the “[Total cholesterol] Mean CFB” value (RA patients [2]; Study 2 24 weeks results, 100 mg q.d., week 1) was 0.191 mmol/L and the “[Total cholesterol] Mean CFB” value (RA patients [2]; Study 2 24 weeks results, 100 mg q.d., week 2) was 0.214 mmol/L. For the same compound, the “[Total cholesterol] Mean CFB” value (RA patients [2]; Study 2 24 weeks results, 100 mg q.d., week 4) was 0.369 mmol/L, the “[Total cholesterol] Mean CFB” value (RA patients [2]; Study 2 24 weeks results, 100 mg q.d., week 8) was 0.335 mmol/L and the “[Total cholesterol] Mean CFB” value (RA patients [2]; Study 2 24 weeks results, 100 mg q.d., week 12) was 0.517 mmol/L. The “[Total cholesterol] Mean CFB” value (RA patients [2]; Study 2 24 weeks results, 100 mg q.d., week 16) was 0.505 mmol/L, the “[Total cholesterol] Mean CFB” value (RA patients [2]; Study 2 24 weeks results, 100 mg q.d., week 20) was 0.439 mmol/L and the “[Total cholesterol] Mean CFB” value (RA patients [2]; Study 2 24 weeks results, 100 mg q.d., week 24) was 0.529 mmol/L. The “[Total cholesterol] Mean CFB” value (RA patients [2]; Study 2 24 weeks results, 200 mg q.d., week 1) was 0.279 mmol/L, the “[Total cholesterol] Mean CFB” value (RA patients [2]; Study 2 24 weeks results, 200 mg q.d., week 2) was 0.375 mmol/L and the “[Total cholesterol] Mean CFB” value (RA patients [2]; Study 2 24 weeks results, 200 mg q.d., week 4) was 0.418 mmol/L. For the same compound, the “[Total cholesterol] Mean CFB” value (RA patients [2]; Study 2 24 weeks results, 200 mg q.d., week 8) was 0.460 mmol/L, the “[Total cholesterol] Mean CFB” value (RA patients [2]; Study 2 24 weeks results, 200 mg q.d., week 12) was 0.581 mmol/L and the “[Total cholesterol] Mean CFB” value (RA patients [2]; Study 2 24 weeks results, 200 mg q.d., week 16) was 0.517 mmol/L. The “[Total cholesterol] Mean CFB” value (RA patients [2]; Study 2 24 weeks results, 200 mg q.d., week 20) was 0.504 mmol/L, the “[Total cholesterol] Mean CFB” value (RA patients [2]; Study 2 24 weeks results, 200 mg q.d., week 24) was 0.581 mmol/L and the “[Total cholesterol] Mean CFB” value (RA patients [2]; Study 2 24 weeks results, placebo switching to 100 mg q.d. at week 12, week 16) was 0.241 mmol/L. The “[Total cholesterol] Mean CFB” value (RA patients [2]; Study 2 24 weeks results, placebo switching to 100 mg q.d. at week 12, week 20) was 0.340 mmol/L, the “[Total cholesterol] Mean CFB” value (RA patients [2]; Study 2 24 weeks results, placebo switching to 100 mg q.d. at week 12, week 24) was 0.317 mmol/L and the “Atherogenic index Median CFB - 24 weeks results” value (“Atherogenic index Median CFB” below) (RA patients [3]; Placebo switched to 100 mg q.d. at week 12, week 16) was 0.00 mmol/L. For the same compound, the “Atherogenic index Median CFB” value (RA patients [3]; Placebo switched to 100 mg q.d. at week 12, week 20) was -0.10 mmol/L, the “Atherogenic index Median CFB” value (RA patients [3]; Placebo switched to 100 mg q.d. at week 12, week 24) was -0.20 mmol/L and the “Atherogenic index Median CFB” value (RA patients [3]; increased from 25 mg b.i.d. to 50 mg b.i.d at 12 weeks, week 16) was -0.30 mmol/L. For the same compound, the “Atherogenic index Median CFB” value (RA patients [3]; increased from 25 mg b.i.d. to 50 mg b.i.d at 12 weeks, week 20) was -0.30 mmol/L.
